According to PMC11348129:
These are yes or no findings as the source states them, for the method shown. In cells and extracts the contact can be indirect. Some entries that bind do so weakly or less than the wild type.

Chains of the proteins cited; added tags and fusions are not shown.
UniProt Q7Z434: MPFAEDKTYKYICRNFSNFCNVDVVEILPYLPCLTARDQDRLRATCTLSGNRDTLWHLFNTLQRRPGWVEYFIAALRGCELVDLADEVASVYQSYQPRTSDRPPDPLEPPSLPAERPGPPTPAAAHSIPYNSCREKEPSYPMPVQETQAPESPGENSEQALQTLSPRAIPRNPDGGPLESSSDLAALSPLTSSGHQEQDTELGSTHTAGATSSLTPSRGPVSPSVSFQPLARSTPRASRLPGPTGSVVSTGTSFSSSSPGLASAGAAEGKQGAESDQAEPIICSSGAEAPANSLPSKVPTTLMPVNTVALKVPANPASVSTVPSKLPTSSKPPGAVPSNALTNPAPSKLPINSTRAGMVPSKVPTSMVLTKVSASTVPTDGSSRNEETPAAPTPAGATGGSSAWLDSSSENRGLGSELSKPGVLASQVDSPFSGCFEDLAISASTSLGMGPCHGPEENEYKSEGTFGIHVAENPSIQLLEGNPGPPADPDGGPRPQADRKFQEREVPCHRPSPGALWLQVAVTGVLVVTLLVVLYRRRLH

Molecular target: MAVS, mitochondrial antiviral-signaling protein (endogenous) (human (endogenous in THP-1 and HEK293T)) (UniProt Q7Z434)
Test: co-IP; endogenous MAVS immunoprecipitated with anti-MAVS antibody (anti-IgG as control) and protein A/G magnetic beads from RIPA lysate of PMA-differentiated THP-1 macrophages, 4 °C; ZDHHC7 detected by immunoblot

binding: binds
B1: ZDHHC7 (endogenous) (enzyme, UniProt Q9NXF8 1-308)
chain: MQPSGHRLRDVEHHPLLAENDNYDSSSSSSSEADVADRVWFIRDGCGMICAVMTWLLVAYADFVVTFVMLLPSKDFWYSVVNGVIFNCLAVLALSSHLRTMLTDPGAVPKGNATKEYMESLQLKPGEVIYKCPKCCCIKPERAHHCSICKRCIRKMDHHCPWVNNCVGEKNQRFFVLFTMYIALSSVHALILCGFQFISCVRGQWTECSDFSPPITVILLIFLCLEGLLFFTFTAVMFGTQIHSICNDETEIERLKSEKPTWERRLRWEGMKSVFGGPPSLLWMNPFVGFRFRRLPTRPRKGGPEFSV
